Test results published in publication PMC5711941.
Results are given in words; binding and its absence hold for the method and conditions named.

Chains of the proteins cited; added tags and fusions are not shown. Lines headed by an entry give the natural chain unless they say otherwise; changes in a name come on top. A line that says so, or that is headed by a name, gives the form on record, which may keep a tag or linker. Residues count along the entry.
cortactinCR (cortactin repeat domain, residues Gly83-Phe324 of mouse cortactin) (Q60598, form named): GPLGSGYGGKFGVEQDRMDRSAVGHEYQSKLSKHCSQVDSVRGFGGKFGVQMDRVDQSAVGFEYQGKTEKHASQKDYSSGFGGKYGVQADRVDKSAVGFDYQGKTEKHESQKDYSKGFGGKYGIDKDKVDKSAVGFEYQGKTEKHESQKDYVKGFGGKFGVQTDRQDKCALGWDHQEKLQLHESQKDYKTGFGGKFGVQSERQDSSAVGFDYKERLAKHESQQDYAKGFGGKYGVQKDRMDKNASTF
cortactinCRH (cortactin repeat and helical domains, residues Gly83-Thr401 of mouse cortactin) (Q60598, form named): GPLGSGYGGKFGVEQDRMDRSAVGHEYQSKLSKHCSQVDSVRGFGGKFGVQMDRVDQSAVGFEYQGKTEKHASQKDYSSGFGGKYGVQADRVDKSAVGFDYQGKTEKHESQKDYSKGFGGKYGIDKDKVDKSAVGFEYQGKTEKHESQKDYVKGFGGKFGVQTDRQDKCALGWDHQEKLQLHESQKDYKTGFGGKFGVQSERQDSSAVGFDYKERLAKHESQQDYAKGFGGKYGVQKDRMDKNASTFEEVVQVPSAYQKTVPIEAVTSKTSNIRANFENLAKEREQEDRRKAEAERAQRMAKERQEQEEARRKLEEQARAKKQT

Experiments:
[1] = target: cortactinCR (cortactin repeat domain, residues Gly83-Phe324 of mouse cortactin) (mouse) (UniProt Q60598); assay: SEC-MALS; WTC-300 silica-based column (Wyatt), 1x PBS with 0.02% sodium azide; 100 µL injected at 0.6 mg/ml (cortactinCRH) or 1.5 mg/mL (cortactinCR); flow 0.4 mL/min; both purified
[2] = target: cortactinCRH (cortactin repeat and helical domains, residues Gly83-Thr401 of mouse cortactin) (mouse) (UniProt Q60598); assay: SAXS; cortactinCRH at 0.4 mg/ml and 1.1 mg/mL in 20 mM Tris pH 8, 300 mM NaCl, 1 mM TCEP; 295 K; molecular weight from Porod volume; both purified
[3] = target: cortactinCRH (cortactin repeat and helical domains, residues Gly83-Thr401 of mouse cortactin) (mouse) (UniProt Q60598); assay: SEC-MALS; WTC-300 silica-based column (Wyatt), 1x PBS with 0.02% sodium azide; 100 µL injected at 0.6 mg/ml (cortactinCRH) or 1.5 mg/mL (cortactinCR); flow 0.4 mL/min; both purified

Row | binding [1] | binding [2] | binding [3] | Substance
1 | no binding (tested: 1.5 mg/mL) |  |  | cortactinCR (cortactin repeat domain, residues Gly83-Phe324 of mouse cortactin) (from UniProt Q60598 83-324) (domain or fragment)
2 |  | no binding (tested: 1.1 mg/mL) | no binding (tested: 0.6 mg/ml) | cortactinCRH (cortactin repeat and helical domains, residues Gly83-Thr401 of mouse cortactin) (from UniProt Q60598 83-401) (domain or fragment)
